Literature values as cited in patent publication US9744204B1, “Multipath nutritional supplement for memory, cognition, and coordination” (priority 2015, dated 2017).
At least one compound was matched to its structure with a doubt left.

Tested on: rat Alzheimer model
Conditions: reported; cited from earlier work

O=C(/C=C/C=C/c1ccc2c(c1)OCO2)N1CCCCC1 [piperine, Piperine]
beta amyloid plaques, tau tangles and memory: reduce beta amyloid plaques and tau tangles and improve memory
